# Data published in paper PMC12431657, “Discovery and mechanistic insights of dibenzoylmethane as a broad spectrum inhibitor of coronavirus” (PLOS Pathogens, 2025).
# Where two headings read alike, the source gives them in different places. The whole screen tested about 3,300 compounds, of which about 60 (2%) showed an effect of 50% or more. The list shows a part of the results.
# Test system: HCoV-OC43
# Parameters: species or system RD; HTS, protection from HCoV-OC43 induced cell death, luminescent cell viability (CellCounting-Lite 2.0), inhibition rate
# Settings: 24 h post infection, 1 h compound pre-incubation, 10 µM, inhibitor
SMILES,OC43 Inhibition rate,"OC43 Inhibition rate (OC43 Inhibition rate, 24 h)"
C[C@@]12CCc3occc3[C@H]1CC[C@@]13C[C@@H](CC[C@H]12)[C@@](O)(CO)C3 [Cafestol],-1.3%,–
NC(=O)CC[C@@H](N)C(=O)O [D-Glutamine],2.8%,–
CC(=O)OC[C@H]1O[C@@H](OC(C)=O)[C@H](OC(C)=O)[C@@H](OC(C)=O)[C@@H]1OC(C)=O [β-D-Glucose pentaacetate],0.3%,–
C[C@@H]1CC[C@@]2(OC1)O[C@H]1C[C@H]3[C@@H]4CC=C5C[C@@H](O)C[C@@H](O[C@@H]6O[C@H](C)[C@H](O)[C@H](O[C@@H]7OC[C@@H](O)[C@H](O)[C@H]7O)[C@H]6O[C@@H]6O[C@@H](C)[C@H](O)[C@@H](O)[C@H]6O)[C@]5(C)[C@H]4CC[C@]3(C)[C@H]1[C@@H]2C [Ophiopogonin D],–,1.6%
CCCCCCC(CCCCCCCCCC(=O)O)C(=O)OCC(O)CO (stereo not shown) [Caprylic/Capric Triglyceride],-0.4%,–
COc1ccc([C@@H](O)CNC(=O)/C=C/c2ccccc2)cc1 (racemic) [Aegeline],0.3%,–
COC1[C@@H](O)[C@H](O)C(O)[C@H](O)[C@H]1O (stereo partly shown) [Sequoyitol],0.1%,–
O=C1C[C@@H](c2ccc(O)c(O)c2)Oc2cc(O[C@@H]3O[C@H](CO)[C@@H](O)[C@H](O)[C@H]3O)cc(O)c21 [Eriodictyol-7-O-glucoside],0.3%,–
C[N+](C)(C)C[C@H](O)CC(=O)[O-] [L-Carnitine],–,2.9%
COc1cc(CCC(=O)CC(=O)CCc2ccc(O)c(OC)c2)ccc1O [Tetrahydrocurcumin],3.5%,–
COc1cc(C(=O)O)cc(OC)c1O [Syringic acid],-0.1%,–
C[C@@H]1CC[C@]2(C(=O)O)CC[C@]3(C)C(=CC[C@@H]4[C@@]5(C)CC[C@H](O[C@@H]6OC[C@H](O)[C@H](O)[C@H]6O)C(C)(C)[C@@H]5CC[C@]43C)[C@@H]2[C@]1(C)O [Ziyuglycoside II],-3%,–
COC(=O)c1cc(O)c(O)c(O)c1 [Methyl gallate],0.3%,–
C/C=C/C(=O)C1=C(C)C=CCC1(C)C [Damascenone],0.2%,–
O=C1c2c(O)cccc2[C@@H]([C@@H]2O[C@H](CO)[C@@H](O)[C@H](O)[C@H]2O)c2cc(CO)cc(O)c21 [Aloin B],-0.2%,–
COc1ccc(C=O)cc1 [4-Methoxybenzaldehyde],3.4%,–

SMILES,OC43 Inhibition rate,"OC43 Inhibition rate (OC43 Inhibition rate, 24 h)"
Cn1c(=O)c2nc[nH]c2n(C)c1=O [Theophylline],-0.2%,–
CC(=O)O[C@H](CC=C(C)C)C1=CC(=O)c2c(O)ccc(O)c2C1=O [Acetylshikonin],3.9%,–
COc1cc2c(cc1OC)[C@@H](Cc1ccc(Oc3cc(C[C@@H]4c5cc(OC)c(OC)cc5CCN4C)ccc3O)cc1)N(C)CC2 [Dauricine],0.3%,–
COC[C@@H](Cc1ccc(OC)c(OC)c1)[C@@H](COC)Cc1ccc(OC)c(OC)c1 [Phyllanthin],0.2%,–
CCCCCCCCCC(O)CC(=O)O (stereo not shown) [3-Hydroxydodecanoic acid],-3.9%,–
CC(CC(=O)C[C@@H](C)[C@H]1CC(=O)[C@@]2(C)C3=C(C(=O)[C@@H](O)[C@]12C)[C@@]1(C)CC[C@H](O)C(C)(C)[C@@H]1C[C@@H]3O)C(=O)O (stereo partly shown) [Ganoderic acid G],-1.7%,–
Cc1cc(=O)oc2cc(O)ccc12 [4-Methylumbelliferone],0%,–
C/C=C1/[C@H](O[C@@H]2O[C@H](CO)[C@@H](O)[C@H](O)[C@H]2O)OC=C(C(=O)OC)[C@H]1CC(=O)OCCc1ccc(O)c(O)c1 [Oleuropein],1%,–
C[C@@H]1O[C@@H](Oc2cc(O)c3c(=O)c(O)c(-c4ccc(O)c(O)c4)oc3c2)[C@H](O)[C@H](O)[C@H]1O [Vincetoxicoside B],-0.3%,–
CCCCCCCCCCC(=O)O [Undecanoic acid],-1.1%,–
O=c1[nH]cnc2c1ncn2[C@H]1C[C@H](O)[C@@H](CO)O1 [2'-Deoxyinosine],-0.4%,–
CC(C)=CC(O)C/C(C)=C/COc1c2ccoc2cc2oc(=O)ccc12 (stereo not shown) [Notopterol],40.1%,–
CC(C)=CCC[C@](C)(O[C@@H]1O[C@H](CO[C@@H]2O[C@@H](CO)[C@H](O)[C@H]2O)[C@@H](O)[C@H](O)[C@H]1O)[C@H]1CC[C@]2(C)[C@@H]1[C@H](O)C[C@@H]1[C@@]3(C)CC[C@H](O[C@@H]4O[C@H](CO)[C@@H](O)[C@H](O)[C@H]4O[C@@H]4O[C@H](CO)[C@@H](O)[C@H](O)[C@H]4O)C(C)(C)[C@@H]3CC[C@]12C [Ginsenoside Rc],7.3%,–
O=c1cc(-c2ccc(O)cc2)oc2c([C@@H]3OC[C@@H](O)[C@H](O)[C@H]3O)c(O)c([C@@H]3O[C@H](CO)[C@@H](O)[C@H](O)[C@H]3O)c(O)c12 [Vicenin 3],0.6%,–
COc1cc(O)cc2oc(-c3ccc(O)c(O)c3)c(O)c(=O)c12 [Azaleatin],7.4%,–

# A draw from above in order of molar mass, low to high:
SMILES,OC43 Inhibition rate,"OC43 Inhibition rate (OC43 Inhibition rate, 24 h)"
COc1cc(O)cc2oc(-c3ccc(O)c(O)c3)c(O)c(=O)c12 [Azaleatin],7.4%,–
C[C@@H]1O[C@@H](Oc2cc(O)c3c(=O)c(O)c(-c4ccc(O)c(O)c4)oc3c2)[C@H](O)[C@H](O)[C@H]1O [Vincetoxicoside B],-0.3%,–
CC(C)=CCC[C@](C)(O[C@@H]1O[C@H](CO[C@@H]2O[C@@H](CO)[C@H](O)[C@H]2O)[C@@H](O)[C@H](O)[C@H]1O)[C@H]1CC[C@]2(C)[C@@H]1[C@H](O)C[C@@H]1[C@@]3(C)CC[C@H](O[C@@H]4O[C@H](CO)[C@@H](O)[C@H](O)[C@H]4O[C@@H]4O[C@H](CO)[C@@H](O)[C@H](O)[C@H]4O)C(C)(C)[C@@H]3CC[C@]12C [Ginsenoside Rc],7.3%,–
